# Reference: the supplement of paper PMC3334620
# In all, about 33,000 sequences were measured (“E-score (-0.5 to 0.5)”: median about -0.0014, highest 2% from about 0.25 on). The list shows a part of the results.
# Molecular target: T1, Cad1 (UniProt P24813)
# T1 sequence: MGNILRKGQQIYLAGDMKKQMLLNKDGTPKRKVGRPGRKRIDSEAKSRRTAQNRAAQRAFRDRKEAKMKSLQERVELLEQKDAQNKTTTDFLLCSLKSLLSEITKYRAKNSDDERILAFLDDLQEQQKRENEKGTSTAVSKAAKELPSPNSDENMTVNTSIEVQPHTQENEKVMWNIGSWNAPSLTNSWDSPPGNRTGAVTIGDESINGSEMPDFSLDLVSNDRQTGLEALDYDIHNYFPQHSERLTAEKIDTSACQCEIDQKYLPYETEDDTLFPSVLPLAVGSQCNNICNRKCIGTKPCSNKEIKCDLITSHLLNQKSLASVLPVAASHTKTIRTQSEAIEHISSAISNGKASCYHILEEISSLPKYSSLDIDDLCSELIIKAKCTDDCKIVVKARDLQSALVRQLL
# Experiment: PBM E-score (8-mer binding enrichment) (E-score (-0.5 to 0.5)); higher = stronger / more preferred TF binding
# Settings: protein concentration: 100 nM; construct: GST-full length
# Procedure, shortened: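 Each ungapped eight-base word and its reverse complement, pooled, received an E-score from the Universal PBM Analysis Suite. Underlying scans, normalised with masliner, recorded fluorescent anti-GST bound to GST-tagged yeast transcription factors. These were applied at about 100-200 nM to universal all-10-mer Agilent arrays double-stranded by primer extension.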
row,Sequence,PBM E-score
1,ACCCATCC,-0.166
2,CACATCTC,0.059
3,TCGTTAAA,0.0362
4,TCATCAAA,-0.0451
5,TCGATAGA,0.022
6,AGAGCCCG,-0.192
7,GAACACCA,0.113
8,ATTAACAA,0.201
9,CCTCCAAG,-0.0791
10,ACTCATCA,-0.0343
11,ACCGTTAT,0.0686
12,AATCGATA,0.288
13,AGGCACCA,0.0182
14,CCTTCCGC,-0.212
15,GAATGACC,-0.161
16,ACGCCTAC,-0.225
17,AATAGTTA,0.0477
18,GCGTTGTA,0.0976
19,CTAGCCAC,-0.198
20,CCATGAAA,0.0805
21,ACGGATCT,0.0244
22,GTATTCGA,-0.167

# Copied from the results shown for reference:
row,Sequence,PBM E-score
9,CCTCCAAG,-0.0791
10,ACTCATCA,-0.0343
11,ACCGTTAT,0.0686
12,AATCGATA,0.288
13,AGGCACCA,0.0182

# More entries follow.

row,Sequence,PBM E-score
1,GTGGGCGA,0.0578
2,ACTAGTAT,0.148
3,CAGAGGAC,-0.119
4,ATAGAACC,-0.124
5,ACAGACCA,0.166
6,CCGGAGAC,0.036
7,ACAAGGGT,-0.0344
8,CTGACCGC,0.0147
9,AAGGATAG,-0.0192
10,TCATAGGA,0.046
11,ACATGGGT,0.0464
12,GGAACTCA,-0.0964
13,TCATGGAA,0.029
14,AGTAGCAC,-0.0426
15,ACGTTAGG,-0.0545
16,ACGAACGC,0.176
17,AGCTACGC,-0.0406
18,TAAAGAAA,0.132
19,CTTCTCTC,-0.0707
20,ACGCCTCG,-0.0665
21,CTTAGCTA,0.092
22,CGCGGATA,0.258

row,Sequence,PBM E-score
1,GGTAGTCA,-0.206
2,ATCACCAG,0.0749
3,ACTGAAAA,0.151
4,GTATCCAA,0.00237
5,GAATTCAC,0.146
6,ATTGACAG,0.00745
7,GAAAGTCC,-0.00621
8,CACCGGAA,0.145
9,CCATGTGA,-0.11
10,AAATTAGA,0.191
11,CTCGTTGA,-0.0911
12,TCCAATCA,-0.0209
13,ACCTTTGA,-0.159
14,CAGCCGCA,-0.142
15,ATCCTCAA,-0.148
16,GCAATCGA,0.0723
17,CGGGTAAC,-0.115
18,ACCAGCGA,-0.0754
19,ATTACGCG,0.144
20,ACGTCATG,0.0602
21,CTGCACAG,0.118
22,CACACCAG,-0.0379

row,Sequence,PBM E-score
1,AATCCCCA,-0.0265
2,ACGACGCA,0.0359
3,GGGAAGAC,-0.154
4,TAGCTAAA,0.0384
5,AGGGATGG,0.0662
6,AGTTTTGC,0.141
7,CGGACTAA,0.0202
8,AGTAGCCC,-0.107
9,CGCAGTTC,0.0797
10,CCACTAAG,0.0649
11,AGTGGCAT,-0.0791
12,GCGAAGCA,0.0455
13,GGTACTAC,-0.0922
14,CTTCGGGC,-0.127
15,CACCGATG,-0.179
16,CCCGATTA,0.155
17,AGGACTGC,-0.136
18,AGACTCAG,0.0244
19,AGATTTTA,-0.0429
20,TATTGGGA,-0.0435
